Reference: publication PMC2647743 (Bioconjugate chemistry, 2008)

Tested on: PC-3 tumor xenografts
Test: Biodistribution
Settings: PC-3 tumor bearing SCID mice, 4 hr p.i., i.v., n = 5

Question: Which Blood does the source give for `CSCC[C@H](NC(=O)[C@H](CC(C)C)NC(=O)[C@H](Cc1cnc[nH]1)NC(=O)CNC(=O)[C@@H](NC(=O)[C@H](C)NC(=O)[C@H](Cc1c[nH]c2ccccc12)NC(=O)[C@H](CCC(N)=O)NC(=O)CCCCCCCNC(=O)CN1CCN(CC(=O)O)CCN(CC(=O)O)CCN(CC(=O)O)CC1)C(C)C)C(N)=O` [In-DOTA-8-AOC-BBN(7-14)NH2] here?
Answer: The Blood was 0.03 ± 0.01 %ID/g.

Question: And the Heart?
Answer: Its Heart is 0.03 ± 0.02 %ID/g.
